Measurements from “University of Dundee, Small-Polar-MMV Screening Library” (2021), ChEMBL document CHEMBL3988442.

Sequences of proteins named here, by UniProt entry; tags and fusion partners are left off. Residues count along the entry.
UniProt P9WPC5, whole entry: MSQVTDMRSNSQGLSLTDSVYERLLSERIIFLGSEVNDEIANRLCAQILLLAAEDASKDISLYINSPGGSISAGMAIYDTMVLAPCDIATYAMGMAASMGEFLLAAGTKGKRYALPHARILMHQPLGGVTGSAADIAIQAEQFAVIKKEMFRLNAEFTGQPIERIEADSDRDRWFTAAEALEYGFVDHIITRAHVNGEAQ
UniProt P9WPC3, whole entry partner: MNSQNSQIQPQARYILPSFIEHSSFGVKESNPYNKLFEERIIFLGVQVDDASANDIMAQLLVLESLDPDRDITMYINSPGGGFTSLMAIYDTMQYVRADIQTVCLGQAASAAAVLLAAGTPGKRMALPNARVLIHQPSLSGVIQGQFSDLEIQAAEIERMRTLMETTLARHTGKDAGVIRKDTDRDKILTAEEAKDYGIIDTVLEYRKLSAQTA
UniProt Q4DA54, 1-478: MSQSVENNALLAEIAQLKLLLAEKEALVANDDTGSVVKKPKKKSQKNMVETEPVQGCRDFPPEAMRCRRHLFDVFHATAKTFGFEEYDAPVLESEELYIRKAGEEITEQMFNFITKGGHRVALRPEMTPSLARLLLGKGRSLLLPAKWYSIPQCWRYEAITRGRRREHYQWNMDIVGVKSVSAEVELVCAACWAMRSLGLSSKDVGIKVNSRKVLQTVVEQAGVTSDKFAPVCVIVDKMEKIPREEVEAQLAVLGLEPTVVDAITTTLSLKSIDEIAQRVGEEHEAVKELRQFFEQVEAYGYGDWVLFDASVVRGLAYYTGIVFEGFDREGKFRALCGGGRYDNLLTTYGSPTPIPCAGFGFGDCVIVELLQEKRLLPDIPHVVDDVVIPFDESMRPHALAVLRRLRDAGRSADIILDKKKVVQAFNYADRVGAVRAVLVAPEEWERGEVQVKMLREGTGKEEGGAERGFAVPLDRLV
UniProt Q8IDJ8, 1-583: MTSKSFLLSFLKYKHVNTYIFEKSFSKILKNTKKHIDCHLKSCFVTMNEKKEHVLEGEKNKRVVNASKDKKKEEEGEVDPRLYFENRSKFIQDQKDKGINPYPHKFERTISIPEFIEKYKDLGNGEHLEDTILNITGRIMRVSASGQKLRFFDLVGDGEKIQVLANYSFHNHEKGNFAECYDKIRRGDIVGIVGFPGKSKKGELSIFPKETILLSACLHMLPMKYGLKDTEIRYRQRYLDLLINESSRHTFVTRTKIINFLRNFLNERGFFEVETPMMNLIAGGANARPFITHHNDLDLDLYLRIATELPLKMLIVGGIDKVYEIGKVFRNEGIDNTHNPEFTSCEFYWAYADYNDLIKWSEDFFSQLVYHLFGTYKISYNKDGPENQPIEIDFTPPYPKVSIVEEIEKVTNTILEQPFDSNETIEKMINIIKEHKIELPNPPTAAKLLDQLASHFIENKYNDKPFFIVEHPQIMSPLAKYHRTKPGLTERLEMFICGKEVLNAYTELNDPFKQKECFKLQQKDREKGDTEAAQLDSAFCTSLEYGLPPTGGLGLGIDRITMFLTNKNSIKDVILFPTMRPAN
UniProt I6X8D2, whole entry: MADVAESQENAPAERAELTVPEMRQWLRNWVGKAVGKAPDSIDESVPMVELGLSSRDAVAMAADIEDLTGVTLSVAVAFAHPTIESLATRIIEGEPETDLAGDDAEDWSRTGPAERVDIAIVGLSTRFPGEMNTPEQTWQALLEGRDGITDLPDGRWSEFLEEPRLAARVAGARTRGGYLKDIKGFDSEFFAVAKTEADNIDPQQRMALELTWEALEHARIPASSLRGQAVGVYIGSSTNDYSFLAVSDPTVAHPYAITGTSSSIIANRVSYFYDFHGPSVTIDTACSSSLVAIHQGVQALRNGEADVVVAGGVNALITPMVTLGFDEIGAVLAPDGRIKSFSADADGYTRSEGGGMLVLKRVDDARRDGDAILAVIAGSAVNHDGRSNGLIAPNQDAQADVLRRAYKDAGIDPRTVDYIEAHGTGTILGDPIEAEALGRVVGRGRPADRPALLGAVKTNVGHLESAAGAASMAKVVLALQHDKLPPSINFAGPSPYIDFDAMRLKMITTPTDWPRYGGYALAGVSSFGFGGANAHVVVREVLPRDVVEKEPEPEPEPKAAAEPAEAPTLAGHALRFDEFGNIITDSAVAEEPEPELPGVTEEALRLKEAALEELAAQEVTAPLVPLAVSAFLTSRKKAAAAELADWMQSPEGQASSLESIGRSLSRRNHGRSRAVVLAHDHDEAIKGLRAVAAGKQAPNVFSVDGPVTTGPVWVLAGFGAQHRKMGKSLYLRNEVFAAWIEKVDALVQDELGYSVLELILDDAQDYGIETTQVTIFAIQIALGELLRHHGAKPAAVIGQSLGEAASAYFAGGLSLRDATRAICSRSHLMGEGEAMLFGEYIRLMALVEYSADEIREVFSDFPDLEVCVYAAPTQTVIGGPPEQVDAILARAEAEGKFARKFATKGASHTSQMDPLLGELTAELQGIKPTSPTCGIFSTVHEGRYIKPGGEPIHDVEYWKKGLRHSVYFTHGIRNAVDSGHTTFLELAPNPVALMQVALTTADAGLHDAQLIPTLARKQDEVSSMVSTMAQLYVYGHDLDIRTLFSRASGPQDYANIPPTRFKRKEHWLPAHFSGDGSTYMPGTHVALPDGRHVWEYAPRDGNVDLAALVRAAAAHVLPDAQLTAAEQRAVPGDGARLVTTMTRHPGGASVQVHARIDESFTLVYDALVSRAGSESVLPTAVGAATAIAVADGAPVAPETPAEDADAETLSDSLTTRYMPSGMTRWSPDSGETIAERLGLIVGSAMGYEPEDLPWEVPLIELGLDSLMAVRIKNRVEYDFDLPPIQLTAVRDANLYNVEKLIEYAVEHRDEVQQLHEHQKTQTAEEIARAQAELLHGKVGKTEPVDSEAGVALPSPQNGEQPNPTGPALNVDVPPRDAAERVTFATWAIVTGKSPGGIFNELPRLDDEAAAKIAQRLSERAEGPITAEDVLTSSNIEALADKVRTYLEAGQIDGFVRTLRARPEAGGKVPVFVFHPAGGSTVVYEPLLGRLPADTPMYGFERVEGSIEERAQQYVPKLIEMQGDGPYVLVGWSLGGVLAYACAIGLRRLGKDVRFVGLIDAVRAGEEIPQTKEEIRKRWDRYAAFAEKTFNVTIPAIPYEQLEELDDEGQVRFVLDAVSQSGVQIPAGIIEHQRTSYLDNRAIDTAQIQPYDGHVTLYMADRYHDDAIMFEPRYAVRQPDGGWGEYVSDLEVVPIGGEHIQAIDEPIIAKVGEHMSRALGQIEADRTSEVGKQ

Results are given as percent effect.
How 0% and 100% were set is not recorded. Most values in the screen are low, and negative values occur.
This is an unselected part of the compounds tested.
A dash means the value is not listed here; it may have been measured.

ClpP1P2: 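Protease assay of ClpP1P2, read by the AMC dye that it sets free. Target: ClpP1P2, Mycobacterium tuberculosis (UniProt P9WPC5 and UniProt P9WPC3). Tested at 50 µM. Direction is inferred from only a few compounds that gave an IC50; most scored high, so higher reads as stronger inhibition. Most other retested compounds had strongly negative values. Size under these conditions: about 69,000 compounds, about 10 of them at 50% or above in at least one test.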
TcHisRS: 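Enzyme assay of histidyl-tRNA synthetase; the read-out is not stated. Target: Histidine-tRNA ligase, Trypanosoma cruzi CL Brener (UniProt Q4DA54). Tested at 30 µM. Direction is inferred from retests: higher values go with stronger inhibition. Of about 69,000 compounds tested this way, about 31 (0.045%) reached 50% or more in at least one test.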
PfKRS1: 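Enzyme assay of the cytosolic lysyl-tRNA synthetase in 384-well plates, read by luminescence. Target: Lysine-tRNA ligase, Plasmodium falciparum 3D7 (UniProt Q8IDJ8). Concentration: 30 µM. Direction is inferred from only a few compounds that gave an IC50; most scored high, so higher reads as stronger inhibition. Of about 69,000 compounds tested this way, about 49 (0.071%) reached 50% or more in at least one test.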
Pks13 thioesterase: 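Polyketide synthase Pks13, Mycobacterium tuberculosis (UniProt I6X8D2). Enzyme assay of the thioesterase domain of polyketide synthase 13; the read-out is not stated. Compounds at 30 µM. The record gives no direction; the compounds picked for IC50 retests had high values, so higher reads as stronger inhibition. Of about 67,000 compounds tested this way, about 300 (0.46%) reached 50% or more in at least one test.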

compound | ClpP1P2 | TcHisRS | PfKRS1 | Pks13 thioesterase
O=C(Cn1cnc(NC(=O)CC2CCCC2)n1)NCc1ccccc1 | 10.03% | 2.662% | 3.675% | -11.73%
CO[C@H]1CN(Cc2ccc(C)o2)[C@@H]2CCCO[C@H]12 | -4% | 2.454% | -4.079% | 8.29%
O=C(COCC(=O)N(c1ccccc1)c1ccccc1)N1CCCC1 | 0.7438% | 5.155% | -1.372% | -0.3661%
CC(C)N1CC(C(=O)NCc2ccnc(-n3cccn3)c2)CC1=O (centres undefined) | 19.04% | 1.527% | 4.056% | -3.079%
CC(NCc1cccc(S(=O)(=O)N(C)C)c1)c1ccccn1 (centres undefined) | -13.31% | 5.263% | 6.965% | -21.75%
CCN(CC1CCOC1)C(=O)Nc1ccc(OC)nc1 (centres undefined) | 35.06% | -0.7634% | 0.2344% | -5.436%
CCC1CC(=O)NCc2nc3sc(C)cn3c21 (centres undefined) | 0.7274% | 10.67% | 3.986% | -28.43%
CN(C)Cc1cc(CC2(NCc3ccc(C#N)cc3)COC2)no1 | -12.99% | 4.478% | 6.679% | -41.88%
COc1nn(C)c2c1CCCN(S(=O)(=O)c1cccs1)C2 | 6.951% | 4.348% | -4.305% | 22.03%
N#CCCN(CC1CCOC1)Cn1ccc(-c2ccsc2)n1 (centres undefined) | -6.275% | 5.155% | -0.4159% | -22.32%
COc1cc(C)nc(N2CCN(C(=O)c3ccn(C)c(=O)c3)CC2)n1 | -8.122% | 6.977% | 3.411% | 8.247%
CS(=O)(=O)N1CCN(C(=O)c2cc(-c3cccs3)cs2)CC1 | -15.13% | 2.232% | 5.665% | 2.88%
O=C(Cn1ccc2cc(Br)ccc21)NC[C@@H]1CCCN2CCCC[C@H]12 | -3.65% | -2.97% | -2.781% | -5.461%
COCC1COCCC12CCN(Cc1cccs1)CC2 (centres undefined) | 10.3% | -3.333% | 1.912% | -2.761%
CCn1nc(C)c2nnn(CC(=O)Nc3ccc(C)cc3)c(=O)c21 | -2.707% | 2.609% | 0.9891% | -10.73%
Cc1[nH]c2c(F)cccc2c1CC(=O)N1CCCC(N)CC1 (centres undefined) | 0.9082% | -13.53% | -0.8199% | -48.56%
COc1ncccc1C(=O)N1CC(c2nc(-c3cccs3)no2)C1 | -18.36% | 0.4878% | 6.706% | -2.524%
Cc1nc2n(n1)CC(NCC(=O)NCCCOC(C)C)CC2 (centres undefined) | -10.05% | 6.557% | 4.34% | -6.359%
OC(CN1CCN(CCOCC(F)(F)F)CC1)c1ccccc1 (centres undefined) | 8.897% | 9.231% | -2.784% | -5.977%
Cc1ccccc1CN(C)C(=O)CN1CCCC(Cn2cncn2)C1 (centres undefined) | -29.65% | 8.571% | 1.259% | -17.79%
O=C(CN1CC(n2cccn2)C1)NCCCc1ccccc1 | -3.246% | -4.981% | 0.6726% | 0.8613%
Cc1cnn(CC2CN(CC(=O)Nc3sccc3C#N)CCO2)c1 (centres undefined) | 0.09309% | -0.3802% | 3.383% | -4.635%
CCn1nc(C)c2nc(C(C)C)nc(N3CCC(O)CC3)c21 | 15.16% | 0% | 8.514% | -24.36%
COCCCS(=O)(=O)N1CCN(C(=O)CO)CC1 | -0.8715% | -0.5525% | -4.039% | -7.251%
Cc1csc(C(C#N)C(=O)NCc2cccnc2)n1 (centres undefined) | -5.626% | 10% | -0.9391% | 7.642%
CN(C)CC1CN(Cc2nc(-c3ccccn3)no2)CCO1 (centres undefined) | 16.9% | 2.339% | -1.898% | -29.58%
Cc1ncoc1C(=O)N1C[C@@H]2CN(CC3CC3)CCO[C@@H]2C1 | -0.7333% | 4.902% | 3.075% | -14.01%
COCCN1CCC(CNC(=O)CCc2cc(F)ccc2F)C1 (centres undefined) | -17.66% | 7.229% | 3.03% | -1.208%
CCOc1ccc(CC(CNC(=O)c2ccco2)C(N)=O)cc1 (centres undefined) | -13.7% | 0% | 4.621% | -17.09%
O=C(Cc1cccc(Cl)c1)N[C@@H]1CCNC[C@H]1O | -9.52% | -1.695% | 4.101% | -20.58%
Cc1cc(CNC(=O)N2CCN(C(C)c3cccnc3)CC2)c(C)o1 (centres undefined) | -2.588% | 2.703% | 2.958% | -24.38%
O=C(Cc1cn2ccsc2n1)N1CCCC(n2ccnc2)C1 (centres undefined) | -1.169% | 5.572% | -0.502% | -34.84%
Cc1ccsc1S(=O)(=O)N1CCc2c(c(C(=O)O)nn2CC2CC2)C1 | 5.246% | 6.818% | 7.675% | -5.824%
COc1cc(C)ccc1C(=O)N1C[C@@H](CN(C)CCO)[C@@H](CO)C1 | 6.106% | 3.061% | -0.7783% | -5.072%
CN(c1nccc(-c2cnc3sccn3c2=O)n1)C1CCCCC1 | -3.016% | 6.78% | 1.765% | 6.181%
CN1CCN(C(=O)c2cc(C#N)cs2)c2ccccc2C1 | 1.936% | 0% | 2.106% | -8.677%
c1ccc(CN2C[C@@H]3CCCO[C@@H]3[C@H](Nc3ccccn3)C2)nc1 | -2.953% | 2.542% | 3.523% | -8.924%
Cc1cc(CNC(=O)c2cc(COc3cncc(Cl)c3)on2)n[nH]1 | -0.5672% | -5.202% | -2.979% | 17.86%
Cc1cnn(CCNCc2ccc(OCC(N)=O)cc2)c1 | -15.18% | 0.4149% | -0.1335% | -8.899%
CO[C@@H]1CCN(c2ncc(F)cn2)[C@H]1Cc1cnn(C)c1 | -5.338% | 5.288% | -1.909% | -25.77%
CCOC(=O)N1CCC(NC(C)c2ccccc2-n2cccn2)CC1 (centres undefined) | 5.957% | 4.327% | -4.15% | 10.56%
COc1ccc(Cl)cc1NCC(=O)NCCNc1cnccn1 | 3.97% | -3.759% | 9.007% | -3.145%
CCOCC1CN(Cc2ccco2)Cc2ccnn2C1 (centres undefined) | -8.75% | 6.522% | 8.83% | 5.703%
CC(=O)N1CC(C)CN(C(=O)c2cccnc2C)c2ccccc21 (centres undefined) | 3.77% | 8.081% | 3.755% | -2.715%
Cc1ccc(C)c(NC(=O)N2CCC3(CC2)NC(=O)CC3C(=O)O)c1 (centres undefined) | 1.237% | 7.514% | 2.383% | -
COc1c(C2CCCN2CC(=O)Nc2cc(C)nn2C)c(C)nn1C (centres undefined) | -4.993% | 7.018% | 0.9491% | 4.561%
CCN(CC(O)c1ccc(C)cc1)C(=O)NC(C)C (centres undefined) | 0.7069% | 8% | 5.9% | -5.199%
O=C(NC[C@H]1CCCN1)c1cc(COc2cccc(C(F)(F)F)c2)[nH]n1 | -3.554% | 3.175% | 4.101% | -29.59%

Repeated from the top, 6 entries:

O=C(Cn1cnc(NC(=O)CC2CCCC2)n1)NCc1ccccc1 gave ClpP1P2: 10.03%; TcHisRS: 2.662%; PfKRS1: 3.675%; Pks13 thioesterase: -11.73%.
CO[C@H]1CN(Cc2ccc(C)o2)[C@@H]2CCCO[C@H]12 gave ClpP1P2: -4%; TcHisRS: 2.454%; PfKRS1: -4.079%; Pks13 thioesterase: 8.29%.
O=C(COCC(=O)N(c1ccccc1)c1ccccc1)N1CCCC1 gave ClpP1P2: 0.7438%; TcHisRS: 5.155%; PfKRS1: -1.372%; Pks13 thioesterase: -0.3661%.
CC(C)N1CC(C(=O)NCc2ccnc(-n3cccn3)c2)CC1=O (centres undefined) gave ClpP1P2: 19.04%; TcHisRS: 1.527%; PfKRS1: 4.056%; Pks13 thioesterase: -3.079%.
CC(NCc1cccc(S(=O)(=O)N(C)C)c1)c1ccccn1 (centres undefined) gave ClpP1P2: -13.31%; TcHisRS: 5.263%; PfKRS1: 6.965%; Pks13 thioesterase: -21.75%.
CCN(CC1CCOC1)C(=O)Nc1ccc(OC)nc1 (centres undefined) gave ClpP1P2: 35.06%; TcHisRS: -0.7634%; PfKRS1: 0.2344%; Pks13 thioesterase: -5.436%.